Hit rate of the full screen: of about 320,000 compounds, about 2,100 (0.66%) were called active. The inconclusive results got no clear call from the source; some entries with a clear call stand among them for comparison. The call rests on the fitted dose curve; in most records, active means well fitted inhibition curve with a large enough effect in the signal ratio, with a control signal flat (not every such curve was filed as active); inconclusive means small, poorly fitted or top-dose-only effect, or effect the other way, or a change in a side signal; inactive means flat fitted curve, though single readings scatter; the % refers to the signal ratio. Where the call is inconclusive, the potency comes from a doubtful curve fit.
Assay: qHTS Assay for Lipid Storage Modulators in Drosophila S3 Cells
Settings: BODIPY lipid droplet fluorescence, 18-24 h, cells fed with added oleic acid; lipid storage change, negative = inhibition: at 46.1 µM (top of the series) unless noted
In short: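 Drosophila S3 cells loaded with oleic acid (400 uM, as added) and compounds at several concentrations; lipid droplets imaged by 488-nm laser-scanning cytometry, 500–530 nm intensity and object ratio to cell channel. Percent activity normalized to 20 uM Triacsin C.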
In the case of `COC(=O)COc1cccc(-n2cnnn2)c1`, the Potency was inconclusive: 5.8 µM [falling, single point]. In the case of `COc1ccccc1C(=O)NCCSCc1ccccc1Cl`, the lipid storage change, negative = inhibition was inconclusive: -22.1%. For `CC(C)(C)c1ccc(-c2cc(N)n[nH]2)cc1`, the lipid storage change, negative = inhibition was inconclusive: -0.193%. In the case of `COC(=O)c1ccc(NC(=O)Cc2ccc(F)cc2)cc1`, the lipid storage change, negative = inhibition was inconclusive: 0.689% [at 9.22 µM]. In the case of `c1ccc(-c2nc3ccccc3[nH]2)nc1`, the lipid storage change, negative = inhibition was inconclusive: 13.1%. For `Cc1cccc(N2CCN(C(=O)c3c(-c4ccccc4)noc3C)CC2)c1C`, the lipid storage change, negative = inhibition was inconclusive: -47.9%. With `Cc1nc(SCC(=O)Nc2nnc(C(C)C)s2)n[nH]1` the lipid storage change, negative = inhibition was inconclusive: 76.4%. In the case of `Cc1c(C(=O)NCC2CCCO2)oc2c(Cl)cccc12` (stereo unspecified), the lipid storage change, negative = inhibition was inconclusive: -1.36%. With `O=C(NCCO)c1cccc(Nc2nc(-c3ccccc3)c3cc(Cl)ccc3n2)c1` the lipid storage change, negative = inhibition was inconclusive: -14.4%. For `COC(=O)c1cc2ccc(OC)c(OC)c2c(=O)s1`, the lipid storage change, negative = inhibition was inconclusive: 70.7%. With `COc1cccc(-c2nc(CS(=O)CC(=O)NC3CC3)c(C)o2)c1` (stereo unspecified) the Potency was inconclusive: 4.61 µM [activator, full curve]. With `Cc1cc([N+](=O)[O-])nn1CC(=O)NC(C)c1ccccc1` (stereo unspecified) the “lipid storage change, negative = inhibition” value was inactive: 8.15%. With `O=C(O)c1cc2n(n1)C(C(F)(F)F)CC(c1ccco1)N2` (stereo unspecified) the Potency was inconclusive: 25.9 µM [falling, single point]. With `CCc1cccc2c1NC(=O)[C@]21[C@@H]2C(=O)N(Cc3ccccc3)C(=O)[C@@H]2[C@@H]2CCCN21` the lipid storage change, negative = inhibition was inconclusive: 15.9%. For `O=C(Nn1c(C2CC2)nc2ccccc2c1=O)c1ccco1`, the lipid storage change, negative = inhibition was inconclusive: 21%. For `Cc1[nH]c2ccccc2c1C(=O)CSC(=S)N(C)C`, the lipid storage change, negative = inhibition was inconclusive: 0.119%. With `COc1ccc(CNC(=O)C2CCC(=O)N2C(C)C)c(OC)c1` (stereo unspecified) the lipid storage change, negative = inhibition was inconclusive: -23.1%. For `COc1cc(C)c(CN2CCSCC2)cc1C`, the lipid storage change, negative = inhibition was inconclusive: -24.2%. For `COc1ccc(NC(=O)c2cc(Br)ccc2Cl)c(OC)c1`, the lipid storage change, negative = inhibition was inconclusive: 17.8%. In the case of `COc1cccc(OC)c1C(=O)Nc1ccc(NC(=O)c2ccco2)cc1`, the lipid storage change, negative = inhibition was inconclusive: 24.6%. With `CC1CCCN(C(=O)C2(NC(=O)Nc3cccc(F)c3)CCCCC2)C1` (stereo unspecified) the Potency was inconclusive: 3.26 µM [activator, single point]. For `O=[N+]([O-])c1ccc(C(O)C23CN4CN(CN(C4)C2)C3)cc1` (stereo unspecified), the lipid storage change, negative = inhibition was inconclusive: 14.4%. With `CN(C[C@H](c1ccccc1)N(C[C@H](Cc1ccccc1)N(CCc1ccccc1)N=O)N=O)N=O` the lipid storage change, negative = inhibition was inconclusive: 16.9%. With `Cc1csc(SCC(=O)Nc2cccc(C)c2C)n1` the lipid storage change, negative = inhibition was inconclusive: 7.29%. For `CC(C)(C)NC(=O)C1CCN(c2ccc(S(=O)(=O)N3CCOCC3)cc2Cl)CC1`, the lipid storage change, negative = inhibition was inconclusive: -39.2%. For `Cc1cc(Sc2nnc(N)s2)c2ccccc2n1`, the lipid storage change, negative = inhibition was inconclusive: -49.3%. With `c1ccc(CN2CCN(c3ncnc4c3[nH]c3ccccc34)CC2)cc1` the Potency was inconclusive: 16.4 µM [activator, single point]. For `COc1cccc(OCCOCC(O)CN2CCN(Cc3ccc(Cl)cc3)CC2)c1` (stereo unspecified), the lipid storage change, negative = inhibition was inconclusive: 20.5%. With `CC(=O)Nc1ccc(NC2(C)C(=O)c3ccccc3C2=O)cc1` the lipid storage change, negative = inhibition was inconclusive: -98.9%. For `O=C(c1ccc(-n2cccn2)cc1)N1CCc2ccccc2C1`, the lipid storage change, negative = inhibition was inconclusive: -18.4%. With `C=CCN(CC=C)S(=O)(=O)c1ccc(NC(=S)NC(=O)c2ccc(-c3ccccc3)cc2)cc1` the Potency was inconclusive: 6.51 µM [activator, partial curve, poor fit]. With `OC(CN1CCNCC1)Cn1ccc2ccccc21` (stereo unspecified) the lipid storage change, negative = inhibition was inconclusive: 35.7%. In the case of `COc1cccc(-c2nc(C=O)cs2)c1`, the lipid storage change, negative = inhibition was inconclusive: -18.2%. In the case of `O=C1c2[nH]nc(-c3ccccc3O)c2C(c2ccccc2F)N1Cc1ccco1` (stereo unspecified), the lipid storage change, negative = inhibition was inconclusive: 90.5%. In the case of `CCc1cc2c(=O)c(-c3cscn3)coc2c(CN(C)C)c1O`, the lipid storage change, negative = inhibition was inconclusive: -27.6%. For `O=C(/C=C/Nc1ccc(F)cc1Br)c1ccccc1`, the lipid storage change, negative = inhibition was inconclusive: 27.9%. For `CCC(=O)Nc1ccc(C(=O)OCc2ccc(Cl)c(Cl)c2)cc1`, the Potency was inconclusive: 20.6 µM [activator, single point]. For `CCCN1CCN(CC(=O)Nc2nncs2)CC1`, the lipid storage change, negative = inhibition was inconclusive: 158%. For `COc1ccc(-c2cc(C(F)F)n3ncc(C(=O)Nc4cc(C)on4)c3n2)cc1`, the lipid storage change, negative = inhibition was inconclusive: -32.7%. In the case of `COc1cccc(/C=N/NC(=O)c2cc3c(OC)ccc(OC)c3[nH]2)c1O`, the lipid storage change, negative = inhibition was inconclusive: -20.9%. With `Cc1ccccc1NC(=O)CC1SC(=NC2CCCCC2)NC1=O` (stereo unspecified) the Potency was inconclusive: 1.16 µM [activator, full curve]. With `COc1cc(OC)c(C(=O)NCc2ccc3c(c2)OCO3)cc1OC` the Potency was inconclusive: 29.1 µM [activator, single point]. In the case of `CC(=O)c1cccc(CN2CCC(n3nccc3NC(=O)CCc3ccccc3)CC2)c1`, the lipid storage change, negative = inhibition was inconclusive: 39%. In the case of `CN(C)c1ccc(Nc2nc(N)c([N+](=O)[O-])c(N3CCOCC3)n2)cc1`, the lipid storage change, negative = inhibition was inconclusive: 1.01%. For `O=C(Nc1ccc(N2CCOCC2)cc1)c1cnccn1`, the Potency was inconclusive: 25.9 µM [falling, single point]. With `Cc1cccc(Cn2c(N3CCc4ccccc4C3)nc3c2c(=O)[nH]c(=O)n3C)c1` the Potency was inconclusive: 6.51 µM [activator, single point]. For `N#Cc1ccc(NC(=O)C2=COCCO2)cc1`, the lipid storage change, negative = inhibition was inconclusive: -27.9%. For `COc1ccc(-n2c(CN3CCC(C(N)=O)CC3)nc3ccc([N+](=O)[O-])cc3c2=O)c(OC)c1`, the lipid storage change, negative = inhibition was inconclusive: 17.1%. In the case of `O=C(OCC(=O)N1CCCC1)c1c(Cl)ccc(Cl)c1Cl`, the Potency was active: 2.91 µM. In the case of `Cc1ccc(NC(=O)CSc2ccccc2NC(=O)c2ccccc2Cl)cc1Cl`, the “lipid storage change, negative = inhibition” value was inactive: 8.64%. For `COC(=O)c1ccc(OC)c(Cn2c(=O)n(C)c(=O)c3ccccc32)c1`, the lipid storage change, negative = inhibition was inconclusive: -73.8%. For `CCCn1c(SCC(=O)NNC(=O)c2ccccc2)nnc1-c1cccnc1`, the Potency was inconclusive: 0.58 µM [activator, full curve, poor fit]. In the case of `CCN1/C(=C/c2ccc3cc(C)ccc3[n+]2CC)Sc2cc(C)c(C)cc21`, the Potency was inconclusive: 1.84 µM [cytotoxic, partial curve]. For `Cc1cccc(NC(=O)c2ccc3c(Cl)c4c(nc3c2)CCCC4)n1`, the lipid storage change, negative = inhibition was inconclusive: -18.9%. With `CCC(C)c1ccccc1NC(=O)Cc1coc2cc3c(cc12)CCC3` (stereo unspecified) the lipid storage change, negative = inhibition was inconclusive: -11.4%. In the case of `CCn1c(CSc2nc3ccccc3n2C)nc2ccccc21`, the lipid storage change, negative = inhibition was inconclusive: 24.2%. In the case of `CCC(C(=O)NCCCN1CCCC1=O)n1c2ccccc2c2nc(=O)cc(C)n21` (stereo unspecified), the Potency was inconclusive: 11.6 µM [falling, single point]. For `CCOc1ccc(NS(=O)(=O)c2ccc(C(=O)NCc3ccccn3)cc2)cc1`, the Potency was inconclusive: 9.2 µM [activator, partial curve]. In the case of `COc1ccc(-n2c(CN3CCN(c4ccccn4)CC3)nc3ccc([N+](=O)[O-])cc3c2=O)c(OC)c1`, the lipid storage change, negative = inhibition was inconclusive: 70.8%. For `Cc1c(/C=N\NC(=O)C2COc3ccc(C(C)(C)C)cc3O2)c2ccccc2n1C` (stereo unspecified), the lipid storage change, negative = inhibition was inconclusive: 3.67%. In the case of `C=CCn1c(SCC(=O)N2CCCC2=O)nc2sc(CC)cc2c1=O`, the lipid storage change, negative = inhibition was inconclusive: 15.7%. For `COc1cccc(NC(=O)CN(C)CC(=O)c2c(N)n(Cc3ccccc3)c(=O)n(C)c2=O)c1`, the lipid storage change, negative = inhibition was inconclusive: 4.37%. For `COc1ccc(OC)c(S(=O)(=O)N2CCCC(N3CCN(c4ccccc4)CC3)C2)c1` (stereo unspecified), the lipid storage change, negative = inhibition was inconclusive: -3.26%. In the case of `Cc1ccn2cc(-c3cc4ccccc4oc3=O)nc2c1`, the lipid storage change, negative = inhibition was inconclusive: -1.53%. In the case of `Cc1ccc(-c2nc(SCC(=O)NCC3CCCO3)c(-c3ccc(Cl)cc3)[nH]2)cc1` (stereo unspecified), the lipid storage change, negative = inhibition was inconclusive: 38.9%. With `Cc1ccccc1NC(=O)C1CCCN1C(=O)NC1CCCCC1` (stereo unspecified) the lipid storage change, negative = inhibition was inconclusive: -32.7%. For `CCNS(=O)(=O)c1ccc2nc(NC(=O)c3cccnc3)sc2c1`, the lipid storage change, negative = inhibition was inconclusive: 12.5%. With `COc1ccc(OC)c(CN2CCN(C(=O)c3ccc(S(=O)(=O)Nc4ccccc4F)cc3)CC2)c1` the Potency was active: 13 µM. For `N#CCc1ccc(Oc2ncccn2)cc1`, the lipid storage change, negative = inhibition was inconclusive: 12%. With `Cc1cc(=O)oc(C)c1C(=O)NC12CC3CC(CC(C3)C1)C2` the lipid storage change, negative = inhibition was inconclusive: 2.24%. With `C/C=C(/C)C(=O)O[C@H]1[C@@H](O)c2c(ccc3ccc(=O)oc23)OC1(C)C` the lipid storage change, negative = inhibition was inconclusive: 6.58%. For `CN(Cc1ccccc1F)C(=O)c1sccc1-c1ccccc1`, the lipid storage change, negative = inhibition was inconclusive: -20.5%. In the case of `CCOC(=O)C1C(C)=CC(=O)CC1c1ccco1` (stereo unspecified), the lipid storage change, negative = inhibition was inconclusive: 23.9%. For `NCCCn1c(C(=O)c2ccc(Cl)cc2)c2ccc(C(F)(F)F)cc2[n+]1[O-]`, the lipid storage change, negative = inhibition was inconclusive: -22.2%. In the case of `Cc1ccc(C(c2nnnn2CCc2ccccc2)N2CCC(C)CC2)cc1` (stereo unspecified), the Potency was inconclusive: 29.1 µM [falling, single point]. For `CC(C)C(=O)N1CCN(c2ccc(NC(=O)c3ccc([N+](=O)[O-])o3)cc2Cl)CC1`, the Potency was inconclusive: 20.6 µM [cytotoxic, single point]. In the case of `Cc1coc2c(C)c3oc(=O)c(CCC(=O)NCCN4CCOCC4)c(C)c3cc12`, the Potency was inconclusive: 25.9 µM [activator, single point]. With `COCCn1c(=S)[nH]c2ccc(N(C)C)cc2c1=O` the Potency was inconclusive: 1.84 µM [falling, partial curve]. In the case of `CCC1(CC)NC(=O)NC1=O`, the lipid storage change, negative = inhibition was inconclusive: -45.3%. For `Cc1cc(C(=O)N/N=C/c2cccs2)n[nH]1`, the lipid storage change, negative = inhibition was inconclusive: -1.53%. For `O=C(COc1ccc(S(=O)(=O)NC2CCCCC2)cc1)N1CCN(c2cccc(Cl)c2)CC1`, the lipid storage change, negative = inhibition was inconclusive: 171%.
On the % scale 0 is the no-effect control and ±100 the full control effect; potency means the concentration at half of the fitted maximal effect.
